The target of the experiment is T1, GST-SAP18 (UniProt O00422).
T1 sequence: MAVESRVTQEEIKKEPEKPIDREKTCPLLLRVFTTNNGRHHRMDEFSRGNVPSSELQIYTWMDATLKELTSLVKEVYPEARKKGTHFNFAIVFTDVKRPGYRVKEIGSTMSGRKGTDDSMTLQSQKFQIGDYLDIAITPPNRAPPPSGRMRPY
Description: pull-down; 5 ug GST-tagged proteins on glutathione sepharose 4B beads incubated 1 hour at 4°C with normalized clarified bacterial lysates of 6His-IN in 20 mM HEPES-KOH pH 8.0, 5 mM DTT, 0.1% IGEPAL; washes with 200 mM NaCl, 0.5% IGEPAL; Western blot, densitometry relative to WT; only the target purified. Background: Immunoblotting shows a protein as a band on a membrane.

No constants are given. Whether binding was seen depends on the method and setting. Binding seen in cells or lysates may run through a third protein. Binding calls can cover weak binding; strength is not graded here. Sequences can lack the tags named with a protein.

As for His6-tagged IN D202G (HIV-1), the binding result was “binds”.

For His6-tagged IN K111E (HIV-1), the binding result is “binds”.

On to His6-tagged IN S147G (HIV-1), for which the binding entry was “binds”.

The values are drawn from paper PMC3708822.
